Taken from: PubChem BioAssay AID493246 (Drosophila RNAi Screening Center, 2011)
The deposit covers about 21,000 reagents; shown is a random part of those with a known target gene and a result. Over the whole deposit, 429 (2%) got an active call. 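Values are raw and not normalised between plates; calls rest on per-plate z-scores that were not deposited.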 No sequences are given here. Not stated in the record: the amount of reagent, the time to read-out.

- Test: 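Genome-wide search for dsRNAs that reduce cell number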 (primary screen)
- Cell system: Drosophila Kc and S2R+ cells
- Knock-down reagent: long dsRNA against Drosophila genes
- Detection: 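Cell number per well after knock-down, printed as raw plate values; calls were based on per-plate z-scores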
- Reading the numbers: Kc cell number and S2R+ cell number: higher = more cells remaining
- Hit rule: 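Counted as a hit if cell number falls by a z-score of at least 3 within its plate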

Ugt305A1 [DRSC08541] → Kc cell number, rep 1: 1.43e6; Kc cell number, rep 2: 1.30e6; S2R+ cell number, rep 1: 1.05e6; S2R+ cell number, rep 2: 1.23e6; call: inactive
LysS [DRSC08677] → Kc cell number, rep 1: 1.55e6; Kc cell number, rep 2: 1.44e6; S2R+ cell number, rep 1: 9.74e5; S2R+ cell number, rep 2: 1.36e6; call: inactive
be [DRSC19607] → Kc cell number, rep 1: 5.74e5; S2R+ cell number, rep 1: 7.82e5; call: inactive
be [DRSC19944] → Kc cell number, rep 1: 1.53e6; Kc cell number, rep 2: 1.55e6; S2R+ cell number, rep 1: 1.06e6; S2R+ cell number, rep 2: 1.18e6; call: inactive
be [DRSC19945] → Kc cell number, rep 1: 1.59e6; Kc cell number, rep 2: 1.59e6; S2R+ cell number, rep 1: 1.11e6; S2R+ cell number, rep 2: 1.22e6; call: inactive
Sec13 [DRSC14144] → Kc cell number, rep 1: 1.52e6; Kc cell number, rep 2: 1.70e6; S2R+ cell number, rep 1: 1.27e6; S2R+ cell number, rep 2: 1.36e6; call: inactive
Tep3 [DRSC03452] → Kc cell number, rep 1: 1.57e6; Kc cell number, rep 2: 1.77e6; S2R+ cell number, rep 1: 1.31e6; S2R+ cell number, rep 2: 1.40e6; call: inactive

Limited to “Kc cell number, rep 2” (2 entries from above):
be [DRSC19944]: 1.55e6
be [DRSC19945]: 1.59e6

The list goes on.
Root [DRSC15972] → Kc cell number, rep 1: 1.81e6; Kc cell number, rep 2: 1.63e6; S2R+ cell number, rep 1: 1.02e6; S2R+ cell number, rep 2: 1.16e6; call: inactive
TwdlZ [DRSC19154] → Kc cell number, rep 1: 1.33e6; Kc cell number, rep 2: 1.53e6; S2R+ cell number, rep 1: 1.14e6; S2R+ cell number, rep 2: 1.17e6; call: inactive
elB [DRSC01379] → Kc cell number, rep 1: 1.43e6; Kc cell number, rep 2: 1.49e6; S2R+ cell number, rep 1: 9.42e5; S2R+ cell number, rep 2: 1.11e6; call: inactive
elB [DRSC03527] → Kc cell number, rep 1: 1.68e6; Kc cell number, rep 2: 1.68e6; S2R+ cell number, rep 1: 1.31e6; S2R+ cell number, rep 2: 1.42e6; call: inactive
CG12126 [DRSC06103] → Kc cell number, rep 1: 1.88e6; Kc cell number, rep 2: 1.93e6; S2R+ cell number, rep 1: 1.43e6; S2R+ cell number, rep 2: 1.62e6; call: inactive
simj [DRSC10942] → Kc cell number, rep 1: 1.16e6; Kc cell number, rep 2: 1.40e6; S2R+ cell number, rep 1: 1.29e6; S2R+ cell number, rep 2: 8.81e5; call: inactive
Mys45A [DRSC07067] → Kc cell number, rep 1: 1.13e6; Kc cell number, rep 2: 1.24e6; S2R+ cell number, rep 1: 9.72e5; S2R+ cell number, rep 2: 1.08e6; call: inactive
EloB [DRSC16663] → Kc cell number, rep 1: 1.18e6; Kc cell number, rep 2: 1.26e6; S2R+ cell number, rep 1: 9.91e5; S2R+ cell number, rep 2: 1.05e6; call: inactive
Lgr1 [DRSC16675] → Kc cell number, rep 1: 1.35e6; Kc cell number, rep 2: 1.40e6; S2R+ cell number, rep 1: 1.04e6; S2R+ cell number, rep 2: 1.16e6; call: inactive
CG32073 [DRSC09087] → Kc cell number, rep 1: 1.64e6; Kc cell number, rep 2: 1.67e6; S2R+ cell number, rep 1: 1.19e6; S2R+ cell number, rep 2: 1.36e6; call: inactive
CG32073 [DRSC09894] → Kc cell number, rep 1: 1.36e6; Kc cell number, rep 2: 1.35e6; S2R+ cell number, rep 1: 1.18e6; S2R+ cell number, rep 2: 1.30e6; call: inactive
CG3163 [DRSC04341] → Kc cell number, rep 1: 1.39e6; Kc cell number, rep 2: 1.44e6; S2R+ cell number, rep 1: 1.06e6; S2R+ cell number, rep 2: 1.11e6; call: inactive
Set2 [DRSC19765] → Kc cell number, rep 1: 6.57e5; S2R+ cell number, rep 1: 9.74e5; call: inactive
CG15306 [DRSC17993] → Kc cell number, rep 1: 1.58e6; Kc cell number, rep 2: 1.55e6; S2R+ cell number, rep 1: 1.01e6; S2R+ cell number, rep 2: 1.10e6; call: inactive
CG15306 [DRSC18240] → Kc cell number, rep 1: 1.37e6; Kc cell number, rep 2: 1.46e6; S2R+ cell number, rep 1: 1.09e6; S2R+ cell number, rep 2: 1.21e6; call: inactive
